Laboratory results reported in patent publication US20250066476A1.
No constants are given. Whether binding was seen depends on the method and setting. Some binding calls cover weakened binding; strength is not graded here.

The chains behind the UniProt entries cited, without tags or fusion partners.
UniProt Q04609: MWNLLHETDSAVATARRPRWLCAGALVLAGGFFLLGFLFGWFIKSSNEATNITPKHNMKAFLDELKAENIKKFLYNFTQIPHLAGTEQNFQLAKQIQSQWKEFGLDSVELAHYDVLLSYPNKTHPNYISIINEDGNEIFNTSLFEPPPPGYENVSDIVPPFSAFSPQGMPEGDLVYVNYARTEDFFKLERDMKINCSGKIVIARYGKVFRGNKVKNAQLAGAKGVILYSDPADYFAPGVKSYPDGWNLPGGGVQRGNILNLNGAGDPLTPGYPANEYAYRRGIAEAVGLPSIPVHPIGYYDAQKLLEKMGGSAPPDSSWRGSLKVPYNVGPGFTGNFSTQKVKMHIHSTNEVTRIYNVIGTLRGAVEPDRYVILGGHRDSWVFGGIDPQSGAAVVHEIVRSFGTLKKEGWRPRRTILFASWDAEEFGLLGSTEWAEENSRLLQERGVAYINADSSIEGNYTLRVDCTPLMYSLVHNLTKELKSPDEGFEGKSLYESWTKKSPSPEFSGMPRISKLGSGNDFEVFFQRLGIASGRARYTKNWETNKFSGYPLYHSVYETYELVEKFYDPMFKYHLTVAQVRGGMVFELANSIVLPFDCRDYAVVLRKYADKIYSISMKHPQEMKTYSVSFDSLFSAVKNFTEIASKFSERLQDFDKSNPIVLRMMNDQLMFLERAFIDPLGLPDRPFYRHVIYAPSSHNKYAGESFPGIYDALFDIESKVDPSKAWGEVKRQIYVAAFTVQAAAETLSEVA

What follows are binders tested against human PSMA (Prostate Specific Membrane Antigen, Glutamate Carboxypeptidase II) (human) (UniProt Q04609) (assay: ELISA protein and cell-binding assays).

binding | Binder
binds | anti-PSMA heavy-chain antibody clone ID 325748 (antibody, V domains shown) VH: QVQLVESGGGVVQPGRSLRLSCAASGFSFSSYGMHWVRQAPGKGLEGVAVIWYDGSNRYYADSVKGRFTISRDNSKNTLYLQMNSLRAEDTAVYYCAREPRIGYYYESSGYYSLDYRGQGTLVTVSS
binds | anti-PSMA heavy-chain antibody clone ID 345463 (antibody, V domains shown) VH: QVQLVESGGGVVQPGRSLRLSCAASGFIFRSYGMHWVRQAPGKGPEWVAVIWYDGSNKYYADSVKGRFTISRDNSKNTLYLQMNSLRAEDTAVYYCAREPRIGYYYESSGYYSLDYRGQGTLVTVSS
binds | anti-PSMA heavy-chain antibody clone ID 325940 (antibody, V domains shown) VH: QVQLVESGGGVVQPGRSLRLSCAASGFIFRSYGMHWVRQAPGKGPEWVAVIWYDGSNKYYADSVKGRFTISRDNSKNTLYLQMNSLRAEDTAVYYCAREPRIGYYYESSGYYSLDYRGQGTLVTVSS
binds | anti-PSMA heavy-chain antibody clone ID 325932 (antibody, V domains shown) VH: QVQLVESGGGVVQPGRSLRLSCAASGFSFSSYGMHWVRQAPGKGLEGVAVIWYDGSNRYYADSVKGRFTISRDNSKNTLYLQMNSLRAEDTAVYYCAREPRIGYYYESSGYYSLDYRGQGTLVTVSS
